The test concerns the target T1, YTHDF3 (human (endogenous in HGC-27)) (UniProt Q7Z739).
T1 sequence: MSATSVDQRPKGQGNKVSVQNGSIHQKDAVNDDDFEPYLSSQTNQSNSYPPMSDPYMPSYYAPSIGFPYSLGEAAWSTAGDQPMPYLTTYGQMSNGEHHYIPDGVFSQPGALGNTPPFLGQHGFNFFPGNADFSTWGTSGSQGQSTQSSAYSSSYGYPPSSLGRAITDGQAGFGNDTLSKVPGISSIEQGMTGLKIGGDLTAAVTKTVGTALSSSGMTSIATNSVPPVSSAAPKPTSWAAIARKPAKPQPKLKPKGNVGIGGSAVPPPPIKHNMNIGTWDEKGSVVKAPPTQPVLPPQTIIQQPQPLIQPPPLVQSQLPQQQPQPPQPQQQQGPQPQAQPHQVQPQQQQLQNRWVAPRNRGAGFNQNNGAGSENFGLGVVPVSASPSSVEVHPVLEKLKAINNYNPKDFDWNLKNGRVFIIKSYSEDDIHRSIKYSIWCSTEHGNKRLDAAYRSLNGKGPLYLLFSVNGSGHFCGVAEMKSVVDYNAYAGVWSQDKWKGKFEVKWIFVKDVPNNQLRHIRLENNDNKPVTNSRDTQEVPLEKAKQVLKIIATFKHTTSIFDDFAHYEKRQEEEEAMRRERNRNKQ
Kind of test: co-IP.

Chains of the proteins cited; added tags and fusions are not shown.
UniProt Q8TDX7: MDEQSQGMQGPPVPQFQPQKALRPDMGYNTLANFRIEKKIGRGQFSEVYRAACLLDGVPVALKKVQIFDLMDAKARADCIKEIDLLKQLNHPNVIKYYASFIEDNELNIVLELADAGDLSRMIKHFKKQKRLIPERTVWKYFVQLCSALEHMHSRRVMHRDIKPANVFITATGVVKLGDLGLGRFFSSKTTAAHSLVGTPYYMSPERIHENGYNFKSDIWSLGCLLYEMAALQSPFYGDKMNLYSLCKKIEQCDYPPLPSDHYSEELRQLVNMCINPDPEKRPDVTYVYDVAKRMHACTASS

These are yes or no findings as the source states them, for the method shown. Binding seen in cells or lysates may run through a third protein. Some entries that bind do so weakly or less than the wild type.

On to NEK7 (from UniProt Q8TDX7 1-302), for which the binding entry is recorded as “binds”.

For the origin of these results see publication doi:10.1101/2025.01.25.634861.
